From article PMC8762023
These are yes or no findings as the source states them, for the method shown. Binding seen in cells or lysates may run through a third protein. Some entries that bind do so weakly or less than the wild type. Sequences can lack the tags named with a protein.

Sequences of proteins named here, by UniProt entry; tags and fusion partners are left off. A change or cut given only in a name is not applied to a line headed by its entry. A line that says so, or that is headed by a name, gives the form on record, which may keep a tag or linker.
UniProt Q8IVH8: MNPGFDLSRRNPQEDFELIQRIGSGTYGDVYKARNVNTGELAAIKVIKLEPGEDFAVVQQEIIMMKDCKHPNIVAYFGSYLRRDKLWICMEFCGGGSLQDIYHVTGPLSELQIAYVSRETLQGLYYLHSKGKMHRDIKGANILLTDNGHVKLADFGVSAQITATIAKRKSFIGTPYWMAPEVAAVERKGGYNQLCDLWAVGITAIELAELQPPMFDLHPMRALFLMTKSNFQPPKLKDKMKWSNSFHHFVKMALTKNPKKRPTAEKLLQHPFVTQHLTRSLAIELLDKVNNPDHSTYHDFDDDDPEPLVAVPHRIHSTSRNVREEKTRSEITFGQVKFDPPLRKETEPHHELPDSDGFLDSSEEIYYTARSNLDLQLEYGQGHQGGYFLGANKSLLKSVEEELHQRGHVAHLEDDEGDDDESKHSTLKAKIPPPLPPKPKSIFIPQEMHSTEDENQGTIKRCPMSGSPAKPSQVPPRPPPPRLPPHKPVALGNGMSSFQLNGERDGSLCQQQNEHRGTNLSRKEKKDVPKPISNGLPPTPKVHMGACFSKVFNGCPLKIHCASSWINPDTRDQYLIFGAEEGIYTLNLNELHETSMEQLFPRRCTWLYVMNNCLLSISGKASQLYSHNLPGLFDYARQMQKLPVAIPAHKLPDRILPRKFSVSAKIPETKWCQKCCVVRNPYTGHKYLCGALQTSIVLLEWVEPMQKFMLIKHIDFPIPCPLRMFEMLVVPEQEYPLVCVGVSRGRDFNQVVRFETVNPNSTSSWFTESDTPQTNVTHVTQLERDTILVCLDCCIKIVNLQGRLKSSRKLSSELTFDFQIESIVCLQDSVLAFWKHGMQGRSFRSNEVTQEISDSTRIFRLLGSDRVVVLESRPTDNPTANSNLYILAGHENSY
Flag-GLKΔN (A410T) mutant (Q8IVH8, form named): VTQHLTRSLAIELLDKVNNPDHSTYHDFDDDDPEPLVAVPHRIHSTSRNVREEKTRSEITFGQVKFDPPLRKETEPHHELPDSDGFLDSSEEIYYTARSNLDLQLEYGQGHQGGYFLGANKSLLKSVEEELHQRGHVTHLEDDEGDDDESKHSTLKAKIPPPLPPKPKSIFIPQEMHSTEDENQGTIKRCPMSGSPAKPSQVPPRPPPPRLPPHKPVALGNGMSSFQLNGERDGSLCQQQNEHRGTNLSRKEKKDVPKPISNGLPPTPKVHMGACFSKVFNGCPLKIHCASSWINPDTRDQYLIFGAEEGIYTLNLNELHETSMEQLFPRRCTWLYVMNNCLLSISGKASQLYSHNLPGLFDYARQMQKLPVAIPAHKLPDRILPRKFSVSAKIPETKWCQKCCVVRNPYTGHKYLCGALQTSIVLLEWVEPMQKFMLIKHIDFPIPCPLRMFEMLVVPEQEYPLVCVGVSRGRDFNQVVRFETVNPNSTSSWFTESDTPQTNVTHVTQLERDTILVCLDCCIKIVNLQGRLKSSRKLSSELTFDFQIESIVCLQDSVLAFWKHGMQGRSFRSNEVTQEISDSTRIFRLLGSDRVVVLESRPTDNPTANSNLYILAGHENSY
Flag-GLKΔN (K650R) mutant (Q8IVH8, form named): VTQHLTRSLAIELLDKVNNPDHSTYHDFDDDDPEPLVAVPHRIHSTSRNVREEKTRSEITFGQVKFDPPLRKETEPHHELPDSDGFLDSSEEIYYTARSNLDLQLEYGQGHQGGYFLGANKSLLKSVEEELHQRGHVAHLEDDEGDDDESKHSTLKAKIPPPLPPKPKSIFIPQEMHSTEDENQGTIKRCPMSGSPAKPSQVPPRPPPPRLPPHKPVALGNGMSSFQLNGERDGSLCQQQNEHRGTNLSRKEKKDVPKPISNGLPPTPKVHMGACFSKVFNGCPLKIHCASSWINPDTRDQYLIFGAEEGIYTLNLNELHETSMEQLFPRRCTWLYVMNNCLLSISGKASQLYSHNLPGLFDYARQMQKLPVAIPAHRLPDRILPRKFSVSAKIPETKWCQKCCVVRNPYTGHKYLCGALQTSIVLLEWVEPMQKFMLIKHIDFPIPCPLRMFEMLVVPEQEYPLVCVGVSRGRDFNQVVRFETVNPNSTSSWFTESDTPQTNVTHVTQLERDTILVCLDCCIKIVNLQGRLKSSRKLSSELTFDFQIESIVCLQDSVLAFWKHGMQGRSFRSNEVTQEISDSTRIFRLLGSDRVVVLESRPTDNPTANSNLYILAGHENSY

Key:
Myc-MKRN4 (human) [1] = biological target: T1, Myc-MKRN4 (human) (UniProt Q13434); assay: proximity ligation; in situ PLA of Myc-tagged MKRN4 and Flag-tagged GLK in HEK293T cells; 25 µM MG132 for 2 hours before harvest
T1 sequence: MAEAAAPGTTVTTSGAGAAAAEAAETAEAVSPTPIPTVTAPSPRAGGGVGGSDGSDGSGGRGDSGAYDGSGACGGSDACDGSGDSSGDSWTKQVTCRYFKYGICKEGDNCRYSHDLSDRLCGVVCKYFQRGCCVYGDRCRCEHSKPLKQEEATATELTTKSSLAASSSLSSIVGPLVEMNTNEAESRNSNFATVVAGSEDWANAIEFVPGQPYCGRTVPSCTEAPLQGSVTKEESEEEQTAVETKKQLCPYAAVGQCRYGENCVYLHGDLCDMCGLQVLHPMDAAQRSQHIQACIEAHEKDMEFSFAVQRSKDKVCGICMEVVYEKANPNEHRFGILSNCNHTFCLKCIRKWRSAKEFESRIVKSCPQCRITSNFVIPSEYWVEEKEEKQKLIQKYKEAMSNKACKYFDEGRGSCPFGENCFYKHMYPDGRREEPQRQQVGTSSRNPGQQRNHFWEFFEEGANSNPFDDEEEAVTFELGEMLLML

Myc-MKRN4 (human) [2] = biological target: T1, Myc-MKRN4 (human); assay: co-IP; lysates of HEK293T cells cotransfected with Myc-MKRN4 plus Flag-GLKΔN wild-type or mutant plasmids

Substance | binding (Myc-MKRN4 (human) [1]) | binding (Myc-MKRN4 (human) [2])
Flag-GLK (MAP4K3), in HEK293T cells (from UniProt Q8IVH8 1-894) (enzyme) | binds | –
Flag-GLKΔN (A410T) mutant (from UniProt Q8IVH8 273-894) (domain or fragment) | – | no binding
Flag-GLKΔN (K650R) mutant (from UniProt Q8IVH8 273-894) (domain or fragment) | – | binds
Flag-GLKΔN wild-type (deletion of amino acids 1–272) (from UniProt Q8IVH8 273-894) (domain or fragment) | – | binds
